Assay results published in patent EP0594764B1 (dated 1993).

Assay: general procedure: Fmoc solid-phase peptide synthesis; DIPCDI and HOBt
Conditions: whole synthesis, 210 nm

Question: Which “final HPLC purity” value does the source give for YFVIKINLFYNSNSPVWKKKQPALF here?
Answer: more than 80% purity

End groups of sequences in plain letters are not given here.
